No constants are given. Whether binding was seen depends on the method and setting. Binding seen in cells or lysates may run through a third protein. Binding can be weak; no strength is given. Sequences can lack the tags named with a protein.
Target: T1, GFP-EMC2 (human) (UniProt Q15006)
T1 sequence: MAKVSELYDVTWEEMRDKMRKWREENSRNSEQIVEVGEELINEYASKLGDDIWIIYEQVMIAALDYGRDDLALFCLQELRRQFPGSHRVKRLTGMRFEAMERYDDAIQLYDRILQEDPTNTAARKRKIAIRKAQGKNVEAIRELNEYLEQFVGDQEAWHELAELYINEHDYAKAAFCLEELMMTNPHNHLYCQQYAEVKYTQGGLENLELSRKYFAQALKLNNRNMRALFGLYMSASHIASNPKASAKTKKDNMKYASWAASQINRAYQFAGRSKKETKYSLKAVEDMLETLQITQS
Assay: co-IP

With back of Sec61 (BOS) complex the binding was “binds”.
